Article doi:10.1101/2022.09.22.509044
These are yes or no findings as the source states them, for the method shown. In cells and extracts the contact can be indirect. Some binding calls cover weakened binding; strength is not graded here.

The chains behind the UniProt entries cited, without tags or fusion partners. Where a name states a change or a piece, a line headed by the entry shows the natural chain unless it says otherwise.
UniProt Q86WV6, whole entry, looked up, stated change not applied: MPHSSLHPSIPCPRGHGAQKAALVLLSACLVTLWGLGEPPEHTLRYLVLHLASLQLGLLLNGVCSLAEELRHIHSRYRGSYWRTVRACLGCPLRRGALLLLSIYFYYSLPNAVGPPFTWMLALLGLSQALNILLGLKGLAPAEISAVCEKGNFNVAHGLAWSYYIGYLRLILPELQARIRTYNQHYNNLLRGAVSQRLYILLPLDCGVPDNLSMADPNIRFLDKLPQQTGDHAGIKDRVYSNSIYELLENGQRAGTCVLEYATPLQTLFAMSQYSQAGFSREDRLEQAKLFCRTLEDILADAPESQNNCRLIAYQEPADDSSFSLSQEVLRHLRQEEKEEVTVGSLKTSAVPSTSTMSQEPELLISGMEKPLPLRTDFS
UniProt O14964, whole entry: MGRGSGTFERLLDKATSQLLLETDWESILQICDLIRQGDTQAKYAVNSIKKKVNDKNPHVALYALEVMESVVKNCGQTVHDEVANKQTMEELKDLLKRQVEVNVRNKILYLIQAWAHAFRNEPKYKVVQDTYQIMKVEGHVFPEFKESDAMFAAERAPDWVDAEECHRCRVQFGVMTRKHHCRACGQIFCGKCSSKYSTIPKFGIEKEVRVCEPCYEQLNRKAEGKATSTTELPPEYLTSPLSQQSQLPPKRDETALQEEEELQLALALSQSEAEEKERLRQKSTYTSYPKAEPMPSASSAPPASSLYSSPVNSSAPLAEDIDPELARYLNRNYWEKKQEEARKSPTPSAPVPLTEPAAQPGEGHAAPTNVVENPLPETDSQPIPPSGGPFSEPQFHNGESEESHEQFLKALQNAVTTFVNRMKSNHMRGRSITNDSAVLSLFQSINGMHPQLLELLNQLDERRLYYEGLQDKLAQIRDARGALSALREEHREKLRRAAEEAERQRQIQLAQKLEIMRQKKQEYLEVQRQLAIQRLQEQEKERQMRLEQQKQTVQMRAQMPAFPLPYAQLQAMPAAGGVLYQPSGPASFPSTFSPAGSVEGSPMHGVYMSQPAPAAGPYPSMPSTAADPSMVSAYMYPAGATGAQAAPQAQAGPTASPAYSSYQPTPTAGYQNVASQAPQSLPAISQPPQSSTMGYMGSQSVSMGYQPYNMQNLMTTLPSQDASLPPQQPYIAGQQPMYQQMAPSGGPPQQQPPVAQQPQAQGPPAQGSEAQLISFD
UniProt Q8NEZ2, whole entry: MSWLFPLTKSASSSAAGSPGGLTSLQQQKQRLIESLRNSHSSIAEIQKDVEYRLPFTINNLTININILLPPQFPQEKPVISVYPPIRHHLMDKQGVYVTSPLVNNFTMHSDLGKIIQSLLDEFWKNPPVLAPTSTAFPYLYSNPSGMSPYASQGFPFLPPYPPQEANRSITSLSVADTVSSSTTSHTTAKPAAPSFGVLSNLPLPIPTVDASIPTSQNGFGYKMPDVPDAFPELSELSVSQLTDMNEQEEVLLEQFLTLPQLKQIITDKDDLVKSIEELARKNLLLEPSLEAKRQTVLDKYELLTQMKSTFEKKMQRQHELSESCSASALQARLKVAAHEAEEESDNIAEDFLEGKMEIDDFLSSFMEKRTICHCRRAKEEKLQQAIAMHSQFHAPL

Legend:
STING V155M-HA (human) = STING V155M-HA (human) (UniProt Q86WV6); assay: co-IP
STING R284S-HA (human) = STING R284S-HA (human) (UniProt Q86WV6); assay: co-IP

binding (STING V155M-HA (human)) | binding (STING R284S-HA (human)) | Substance
binds | binds | mScarlet-HGS (from UniProt O14964 1-777)
binds | binds | mScarlet-VPS37A (from UniProt Q8NEZ2 1-397)
